{"source": "PubChem BioAssay AID240", "about": "(DTP/NCI, 2004)", "system": "Lymphoma 4 ip in BDF1 mice, median survival", "experiment": "NCI In Vivo Anticancer Drug Screen. Data for tumor model Lymphoma 4 (intraperitoneal) in B6D2F1 (BDF1) mice", "conditions": "T/C endpoint: median survival time, schedule: Q01DX010 (ip), vehicle: saline, higher T/C = longer survival", "method": "The antitumor activity of compounds was measured in mice bearing transplantable tumors. Survival or tumor size were measured and the results are expressed as the measurement made in the treated group (T) divided by the measurement made in the vehicle treated control group (C). The tumor model used in this assay is Lymphoma 4 (intraperitoneal) in B6D2F1 (BDF1) mice", "note": "The list does not hold the whole screen: its compounds were picked by chemical class. Not every dose and run of a compound is shown. T/C: endpoint of the treated group in % of that of the vehicle group. Where survival is the endpoint, this PubChem deposit counts one and a half times the control or more as active, and values a quarter to a half above the control carry no call in these data; other NCI protocols may use other cut-offs. Some entries show no survivor count and are marked so; the dose need not have been tolerated. Schedule codes are those of the source, read here as Q, the interval in days (D) or hours (H), X, the number of doses. Some entries hold several experiments; the results are listed from low to high.", "data": [{"compound": "CN(CCCl)CCCl", "values": [{"measurement": "T/C", "setting": "dose: 0.13 mg/kg/injection", "value": "129 [survivor count not shown] and 130 % of control [survivor count not shown]"}, {"measurement": "T/C", "setting": "dose: 0.25 mg/kg/injection", "value": "135 [survivor count not shown] and 160 % of control [survivor count not shown]"}]}]}
